# Assay results as given in paper PMC12431657, “Discovery and mechanistic insights of dibenzoylmethane as a broad spectrum inhibitor of coronavirus” (PLOS Pathogens, 2025).
# The campaign covered roughly 3,300 compounds. About 60 (2%) showed an effect of 50% or more. The list shows a part of the results.
# Tested on: HCoV-OC43
# Parameters: species or system RD; HTS, protection from HCoV-OC43 induced cell death, luminescent cell viability (CellCounting-Lite 2.0), inhibition rate
# Conditions: 24 h post infection, 1 h compound pre-incubation; 10 µM; inhibitor
row,SMILES,OC43 Inhibition rate [%]
1,O=C(O)CC1CCCCC1 [Cyclohexaneacetic acid],1.3
2,C/C=C(\C)C(=O)O[C@H]1[C@H](OC(C)=O)[C@]2(CO)[C@H](O)C[C@]3(C)C(=CC[C@@H]4[C@@]5(C)CC[C@H](O[C@@H]6O[C@H](C(=O)O)[C@@H](O[C@@H]7O[C@H](CO)[C@@H](O)[C@H](O)[C@H]7O)[C@H](O)[C@H]6O[C@@H]6O[C@H](CO)[C@@H](O)[C@H](O)[C@H]6O)[C@](C)(CO)[C@@H]5CC[C@]43C)[C@@H]2CC1(C)C [Escin IA],1.1
3,CC(C)=CCC[C@](C)(O[C@@H]1O[C@H](CO[C@@H]2O[C@H](CO)[C@@H](O)[C@H](O)[C@H]2O)[C@@H](O)[C@H](O)[C@H]1O)[C@H]1CC[C@]2(C)[C@@H]1[C@H](O)C[C@@H]1[C@@]3(C)CC[C@H](O[C@@H]4O[C@H](CO)[C@@H](O)[C@H](O)[C@H]4O[C@@H]4O[C@H](CO)[C@@H](O)[C@H](O)[C@H]4O)C(C)(C)[C@@H]3CC[C@]12C [Ginsenoside Rb1],0.2
4,O=C(O)CC(=O)OC[C@H]1O[C@@H](Oc2c(-c3ccc(O)c(O)c3)oc3cc(O)cc(O)c3c2=O)[C@H](O)[C@@H](O)[C@@H]1O [Quercetin 3-O-(6''-O-malonyl)-β-D-glucoside],-1.3
5,CC(C)(O)[C@@H]1CC[C@](C)([C@H]2[C@@H](O)C[C@@]3(C)[C@@H]4C[C@H](O)[C@H]5C(C)(C)[C@@H](O)CC[C@]5(C)C4=CC[C@]23C)O1 [Astragenol],-0.1
6,Cc1cc(O)c2c(c1)C(=O)c1cc(O)cc(O)c1C2=O [Emodin],-2.2
7,C=C1C[C@@]23CC[C@H]4[C@@](C)(CCC[C@@]4(C)C(=O)O)[C@@H]2CC[C@@H]1C3 [Kaurenoic acid],-0.8
8,Cc1c(O)c(C)c2occ(Cc3ccc4c(c3)OCO4)c(=O)c2c1O [Methylophiopogonone A],4
9,CC1(C)CC[C@]23CO[C@@]4(C=C[C@@H]5[C@@]6(C)CC[C@H](O)[C@@](C)(CO)[C@@H]6CC[C@@]5(C)[C@]4(C)C[C@@H]2O)[C@@H]3C1 [Saikogenin F],28.7
10,COc1ccc(/C=C/C(=O)O)cc1O [Isoferulic acid],-1.3
11,CC(C)=CCOc1c2ccoc2cc2oc(=O)ccc12 [Isoimperatorin],0.5
12,CC(C)C1=C[C@H]2[C@@H](CC[C@]2(C)O)[C@](C)(O)CC1 [Alismoxide],-0.9
13,C/C=C1\[C@H]2C=C(C)C[C@]1(N)c1ccc(=O)[nH]c1C2 [(-)-Huperzine A],2.3

# Random excerpt: 2 entries already listed, in no set order.
row,SMILES,OC43 Inhibition rate [%]
8,Cc1c(O)c(C)c2occ(Cc3ccc4c(c3)OCO4)c(=O)c2c1O [Methylophiopogonone A],4
6,Cc1cc(O)c2c(c1)C(=O)c1cc(O)cc(O)c1C2=O [Emodin],-2.2
